# Assay results as given in the supplement of paper PMC12819154, “High-throughput peptide-centric local stability assay extends protein–ligand identification to membrane proteins, tissues and bacteria” (Nature Structural & Molecular Biology, 2025).
# Sequences of proteins named here, by UniProt entry; tags and fusion partners are left off. A change or cut given only in a name is not applied to a line headed by its entry.
# UniProt P41233: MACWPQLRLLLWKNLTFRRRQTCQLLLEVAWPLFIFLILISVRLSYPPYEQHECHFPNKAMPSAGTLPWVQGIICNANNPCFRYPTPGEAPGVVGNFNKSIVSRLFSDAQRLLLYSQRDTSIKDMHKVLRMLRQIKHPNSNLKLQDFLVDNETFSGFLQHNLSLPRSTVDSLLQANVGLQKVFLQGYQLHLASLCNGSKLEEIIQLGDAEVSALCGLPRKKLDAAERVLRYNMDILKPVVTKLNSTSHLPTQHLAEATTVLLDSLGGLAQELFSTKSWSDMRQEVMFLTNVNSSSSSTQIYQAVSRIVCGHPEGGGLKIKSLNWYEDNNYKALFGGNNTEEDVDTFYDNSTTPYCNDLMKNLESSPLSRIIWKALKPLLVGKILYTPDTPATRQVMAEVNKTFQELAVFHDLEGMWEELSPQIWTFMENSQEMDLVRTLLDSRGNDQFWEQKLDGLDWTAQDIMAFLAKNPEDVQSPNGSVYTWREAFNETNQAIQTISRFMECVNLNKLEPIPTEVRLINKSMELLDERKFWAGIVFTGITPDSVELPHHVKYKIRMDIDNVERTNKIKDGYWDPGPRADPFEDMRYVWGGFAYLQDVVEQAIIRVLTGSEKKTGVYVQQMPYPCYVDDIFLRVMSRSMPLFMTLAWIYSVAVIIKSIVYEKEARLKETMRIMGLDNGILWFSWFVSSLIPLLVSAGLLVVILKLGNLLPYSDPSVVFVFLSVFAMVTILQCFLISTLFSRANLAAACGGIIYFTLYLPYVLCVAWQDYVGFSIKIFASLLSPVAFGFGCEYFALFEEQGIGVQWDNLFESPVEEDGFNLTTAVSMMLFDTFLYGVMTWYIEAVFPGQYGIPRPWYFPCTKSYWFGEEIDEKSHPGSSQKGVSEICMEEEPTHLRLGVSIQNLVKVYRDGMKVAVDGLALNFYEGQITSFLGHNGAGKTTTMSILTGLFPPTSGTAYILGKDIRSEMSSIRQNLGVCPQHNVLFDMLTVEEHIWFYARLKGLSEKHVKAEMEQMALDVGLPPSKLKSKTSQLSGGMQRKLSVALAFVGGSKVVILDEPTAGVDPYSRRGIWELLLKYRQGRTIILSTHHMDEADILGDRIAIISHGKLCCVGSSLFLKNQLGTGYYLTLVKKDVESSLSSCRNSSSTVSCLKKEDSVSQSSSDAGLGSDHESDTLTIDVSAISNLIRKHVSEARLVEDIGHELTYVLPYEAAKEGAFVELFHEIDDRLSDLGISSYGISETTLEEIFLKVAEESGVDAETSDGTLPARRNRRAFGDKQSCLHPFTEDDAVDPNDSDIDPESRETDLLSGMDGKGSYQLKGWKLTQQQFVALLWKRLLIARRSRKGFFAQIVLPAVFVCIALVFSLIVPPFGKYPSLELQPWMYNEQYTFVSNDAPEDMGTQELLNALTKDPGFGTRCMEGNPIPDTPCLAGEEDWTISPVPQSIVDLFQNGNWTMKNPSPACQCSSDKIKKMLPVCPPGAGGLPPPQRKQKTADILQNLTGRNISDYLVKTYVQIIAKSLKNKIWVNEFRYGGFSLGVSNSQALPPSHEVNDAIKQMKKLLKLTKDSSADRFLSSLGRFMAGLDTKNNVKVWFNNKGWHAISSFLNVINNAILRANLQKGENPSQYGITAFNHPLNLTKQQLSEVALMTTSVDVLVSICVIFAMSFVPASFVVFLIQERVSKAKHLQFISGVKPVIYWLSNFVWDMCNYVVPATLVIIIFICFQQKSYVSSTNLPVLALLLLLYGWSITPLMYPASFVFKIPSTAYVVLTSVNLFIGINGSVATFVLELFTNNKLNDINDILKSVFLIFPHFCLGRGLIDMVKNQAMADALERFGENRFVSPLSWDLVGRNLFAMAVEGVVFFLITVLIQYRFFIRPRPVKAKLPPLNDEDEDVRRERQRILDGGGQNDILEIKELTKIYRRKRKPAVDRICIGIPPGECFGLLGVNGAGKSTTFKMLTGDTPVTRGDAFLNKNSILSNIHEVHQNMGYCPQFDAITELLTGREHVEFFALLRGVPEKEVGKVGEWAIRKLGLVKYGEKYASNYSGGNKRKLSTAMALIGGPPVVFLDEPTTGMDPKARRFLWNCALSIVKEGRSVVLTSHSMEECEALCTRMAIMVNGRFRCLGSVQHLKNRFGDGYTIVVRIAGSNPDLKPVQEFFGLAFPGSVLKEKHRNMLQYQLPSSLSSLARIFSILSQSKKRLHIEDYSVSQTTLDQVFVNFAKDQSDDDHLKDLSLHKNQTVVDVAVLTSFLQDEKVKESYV
# UniProt P43274, whole entry: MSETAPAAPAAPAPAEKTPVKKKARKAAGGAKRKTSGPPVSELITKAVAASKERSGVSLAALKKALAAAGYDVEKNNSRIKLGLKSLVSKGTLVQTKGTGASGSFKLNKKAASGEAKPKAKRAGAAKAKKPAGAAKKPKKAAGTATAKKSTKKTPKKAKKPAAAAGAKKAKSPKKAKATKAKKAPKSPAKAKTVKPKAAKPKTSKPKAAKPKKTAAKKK
# UniProt P47879: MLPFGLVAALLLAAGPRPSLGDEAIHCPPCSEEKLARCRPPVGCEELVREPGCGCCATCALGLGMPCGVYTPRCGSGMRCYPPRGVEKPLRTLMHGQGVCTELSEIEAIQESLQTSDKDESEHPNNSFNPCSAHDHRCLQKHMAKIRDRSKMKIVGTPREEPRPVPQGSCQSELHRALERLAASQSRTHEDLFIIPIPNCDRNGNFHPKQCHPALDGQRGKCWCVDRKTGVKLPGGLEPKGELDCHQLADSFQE
# UniProt P42208: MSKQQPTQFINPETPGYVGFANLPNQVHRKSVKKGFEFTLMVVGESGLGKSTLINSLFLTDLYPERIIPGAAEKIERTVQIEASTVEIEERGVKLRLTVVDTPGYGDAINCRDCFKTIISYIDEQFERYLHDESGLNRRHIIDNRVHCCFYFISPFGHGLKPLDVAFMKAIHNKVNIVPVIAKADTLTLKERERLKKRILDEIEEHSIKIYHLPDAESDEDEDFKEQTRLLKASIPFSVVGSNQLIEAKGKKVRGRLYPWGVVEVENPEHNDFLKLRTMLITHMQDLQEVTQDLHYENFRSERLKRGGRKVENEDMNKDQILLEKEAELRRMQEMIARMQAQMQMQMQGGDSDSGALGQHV
# UniProt P56371: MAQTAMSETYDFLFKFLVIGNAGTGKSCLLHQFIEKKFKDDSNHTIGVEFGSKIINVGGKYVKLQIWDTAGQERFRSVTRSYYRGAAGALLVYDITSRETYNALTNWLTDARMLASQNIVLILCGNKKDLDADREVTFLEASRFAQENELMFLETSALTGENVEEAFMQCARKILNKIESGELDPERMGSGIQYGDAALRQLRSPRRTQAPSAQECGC
# UniProt P51174: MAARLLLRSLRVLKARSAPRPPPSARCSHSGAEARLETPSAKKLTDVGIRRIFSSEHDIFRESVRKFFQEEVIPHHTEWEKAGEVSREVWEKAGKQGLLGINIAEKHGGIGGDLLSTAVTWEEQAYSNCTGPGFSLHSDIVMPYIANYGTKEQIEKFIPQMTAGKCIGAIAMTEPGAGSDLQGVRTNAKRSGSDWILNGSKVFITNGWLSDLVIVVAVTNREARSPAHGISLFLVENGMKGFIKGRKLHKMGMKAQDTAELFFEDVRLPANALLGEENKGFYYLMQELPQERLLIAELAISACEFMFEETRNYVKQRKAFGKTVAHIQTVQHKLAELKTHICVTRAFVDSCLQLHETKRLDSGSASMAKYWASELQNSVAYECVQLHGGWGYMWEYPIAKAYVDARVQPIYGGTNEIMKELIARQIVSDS
# UniProt P56593: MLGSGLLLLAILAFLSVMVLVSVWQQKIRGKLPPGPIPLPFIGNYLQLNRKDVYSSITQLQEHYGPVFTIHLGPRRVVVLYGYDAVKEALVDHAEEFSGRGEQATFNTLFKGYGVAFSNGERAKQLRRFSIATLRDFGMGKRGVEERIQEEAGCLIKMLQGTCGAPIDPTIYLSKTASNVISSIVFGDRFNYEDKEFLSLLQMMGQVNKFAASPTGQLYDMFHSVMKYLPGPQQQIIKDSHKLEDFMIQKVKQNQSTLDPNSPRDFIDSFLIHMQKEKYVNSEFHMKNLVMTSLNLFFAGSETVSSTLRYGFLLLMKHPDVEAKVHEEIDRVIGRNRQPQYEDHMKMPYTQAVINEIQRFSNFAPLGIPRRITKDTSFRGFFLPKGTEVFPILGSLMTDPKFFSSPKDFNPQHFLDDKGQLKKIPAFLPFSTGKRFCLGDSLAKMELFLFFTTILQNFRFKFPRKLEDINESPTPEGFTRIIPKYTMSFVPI
# UniProt P54071: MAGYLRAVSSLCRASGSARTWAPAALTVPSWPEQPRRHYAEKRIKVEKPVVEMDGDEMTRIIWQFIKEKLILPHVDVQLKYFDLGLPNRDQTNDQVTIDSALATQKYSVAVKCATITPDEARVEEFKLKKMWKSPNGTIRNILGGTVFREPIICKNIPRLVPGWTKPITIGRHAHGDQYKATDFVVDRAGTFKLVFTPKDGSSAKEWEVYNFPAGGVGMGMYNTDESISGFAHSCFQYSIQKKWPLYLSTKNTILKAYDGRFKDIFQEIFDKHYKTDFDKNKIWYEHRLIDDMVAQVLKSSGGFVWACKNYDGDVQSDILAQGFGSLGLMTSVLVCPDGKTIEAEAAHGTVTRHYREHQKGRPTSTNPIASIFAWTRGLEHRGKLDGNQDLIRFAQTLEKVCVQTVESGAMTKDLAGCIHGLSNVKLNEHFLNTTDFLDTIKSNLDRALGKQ
# UniProt P53612: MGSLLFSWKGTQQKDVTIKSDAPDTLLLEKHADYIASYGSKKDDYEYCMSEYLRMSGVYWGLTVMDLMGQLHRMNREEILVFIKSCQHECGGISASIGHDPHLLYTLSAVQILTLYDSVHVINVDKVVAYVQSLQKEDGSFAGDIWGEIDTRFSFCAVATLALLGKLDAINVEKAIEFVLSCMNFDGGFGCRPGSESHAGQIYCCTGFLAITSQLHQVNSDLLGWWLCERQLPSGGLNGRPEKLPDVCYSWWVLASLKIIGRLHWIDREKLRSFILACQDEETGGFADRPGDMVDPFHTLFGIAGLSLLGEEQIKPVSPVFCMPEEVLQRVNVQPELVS
# UniProt P51885: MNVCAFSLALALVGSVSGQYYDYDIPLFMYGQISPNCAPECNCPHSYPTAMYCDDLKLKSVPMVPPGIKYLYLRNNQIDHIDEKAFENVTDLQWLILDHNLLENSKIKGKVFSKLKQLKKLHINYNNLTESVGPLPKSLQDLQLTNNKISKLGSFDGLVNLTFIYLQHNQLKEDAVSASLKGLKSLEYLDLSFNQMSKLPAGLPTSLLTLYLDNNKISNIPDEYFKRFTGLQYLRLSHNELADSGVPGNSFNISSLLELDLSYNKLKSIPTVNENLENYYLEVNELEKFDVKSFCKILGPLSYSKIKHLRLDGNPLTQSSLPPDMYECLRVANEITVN
# UniProt P49222: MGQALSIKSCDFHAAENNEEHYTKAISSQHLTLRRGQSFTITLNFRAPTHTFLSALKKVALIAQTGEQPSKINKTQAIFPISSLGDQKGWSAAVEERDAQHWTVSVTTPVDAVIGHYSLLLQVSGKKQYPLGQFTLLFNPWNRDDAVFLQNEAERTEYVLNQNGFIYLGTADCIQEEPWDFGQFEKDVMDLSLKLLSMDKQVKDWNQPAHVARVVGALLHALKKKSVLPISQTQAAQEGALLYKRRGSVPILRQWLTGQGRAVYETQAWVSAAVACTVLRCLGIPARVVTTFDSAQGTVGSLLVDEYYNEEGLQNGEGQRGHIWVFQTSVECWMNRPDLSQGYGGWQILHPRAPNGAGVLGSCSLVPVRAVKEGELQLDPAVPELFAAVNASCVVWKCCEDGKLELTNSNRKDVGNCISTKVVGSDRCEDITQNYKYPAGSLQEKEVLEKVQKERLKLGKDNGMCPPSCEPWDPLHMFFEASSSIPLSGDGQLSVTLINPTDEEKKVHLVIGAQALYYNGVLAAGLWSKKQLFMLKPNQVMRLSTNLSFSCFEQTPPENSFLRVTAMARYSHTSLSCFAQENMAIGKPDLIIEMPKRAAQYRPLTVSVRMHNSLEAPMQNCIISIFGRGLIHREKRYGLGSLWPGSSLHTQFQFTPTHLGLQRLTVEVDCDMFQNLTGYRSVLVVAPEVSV
# UniProt P50247: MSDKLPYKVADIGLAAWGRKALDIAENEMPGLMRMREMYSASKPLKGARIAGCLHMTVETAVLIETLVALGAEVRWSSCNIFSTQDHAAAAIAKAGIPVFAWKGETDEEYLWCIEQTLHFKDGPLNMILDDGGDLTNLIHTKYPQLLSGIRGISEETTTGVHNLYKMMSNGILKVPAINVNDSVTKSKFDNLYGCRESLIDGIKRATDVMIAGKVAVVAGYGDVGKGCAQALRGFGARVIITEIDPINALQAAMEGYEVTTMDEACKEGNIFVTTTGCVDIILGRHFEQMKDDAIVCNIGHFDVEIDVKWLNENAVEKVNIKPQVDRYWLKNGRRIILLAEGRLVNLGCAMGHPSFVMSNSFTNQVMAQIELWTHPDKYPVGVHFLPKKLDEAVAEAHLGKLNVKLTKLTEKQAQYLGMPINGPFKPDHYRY
# This is one part of the list. Small differences around the control level are noise.
# Compound: CN[C@@H]1C[C@H]2O[C@@](C)([C@@H]1OC)n1c3ccccc3c3c4c(c5c6ccccc6n2c5c31)C(=O)NC4 [staurosporine]
# Assay: log2 fold change of pooled soluble protein (PISA), ligand vs vehicle (log2 ratio); higher = more thermally stabilized
# Settings: ligand concentration: 20 uM; assay format: PISA pool 52.9/55.5/58.6 C
row,Target,log2 fold change of pooled soluble protein
1,UniProt P41233,0.162
2,UniProt P50427,-0.0462
3,UniProt P43274,-0.0577
4,UniProt P35486,-0.0863
5,UniProt P28660,0.175
6,UniProt P51881,0.0259
7,UniProt P47879,0.0224
8,UniProt P42208,-0.143
9,UniProt P56371,-0.15
10,UniProt P31649,0.0574
11,UniProt P51174,-0.0341
12,UniProt P47740,0.0157
13,UniProt P29754,-0.131
14,UniProt P49182,-0.0926
15,UniProt P51658,0.0814
16,UniProt P56480,-0.095
17,UniProt P28798,0.0443
18,UniProt P56593,-0.0708
19,UniProt P40124,-0.0269

row,Target,log2 fold change of pooled soluble protein
1,UniProt P42932,-0.0631
2,UniProt P46471,-0.0385
3,UniProt P52430,0.0975
4,UniProt P56395,0.101
5,UniProt P42125,-0.057
6,UniProt P51175,0.0718
7,UniProt P47941,0.0341
8,UniProt P35980,-0.215
9,UniProt P54071,0.0262
10,UniProt P50429,0.042
11,UniProt P35569,-0.004
12,UniProt P53612,-0.0711
13,UniProt P52843,-0.338
14,UniProt P51885,0.00187
15,UniProt P49222,-0.0176
16,UniProt P35710,0.204
17,UniProt P50247,0.00966
18,UniProt P33215,0.364

# Looked up above.
# In log2 fold change of pooled soluble protein, UniProt P56395 has 0.101
# In log2 fold change of pooled soluble protein, UniProt P51174 has -0.0341
